Laboratory results published in PubChem BioAssay AID2685 (National Center for Advancing Translational Sciences (NCATS), 2010).
The list shows a part of the results. Further columns of the screen follow, without active or inactive calls. Most of these compounds were active or inconclusive in the main read-out, so they are no random draw. Words in brackets tell the shape of the fitted curve; partial curves, single points and poor fits give uncertain potencies.

Test: qHTS Assay for Lipid Storage Modulators in Drosophila S3 Cells;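 on cell number change: cells counted by Cell Tracker Red CMTPX staining in the red channel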
Details: BODIPY lipid droplet fluorescence, 18-24 h; for cell number change: measured here: cell count max response, cells fed with added oleic acid
In short: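 Drosophila S3 cells got compounds at several concentrations plus oleic acid (400 uM solution). Laser-scanning cytometry with 488 nm excitation read lipid droplets at 500-530 nm and cells at 575-640 nm. Percent activity was relative to 20 uM Triacsin C.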

[1] = measured here: lipid fluorescence (Fed channel) AC50, cells fed with added oleic acid

For O=c1cc(CCl)nc2scc(-c3ccccc3)n12, which cell number change is on record?
The cell number change was 12.8%.

Which results are given for O=C(NCc1ccncc1)c1nc(-c2cccs2)no1?
cell number change: -21.9%; AC50 [1]: 25900 nM [falling, single point]

Which cell number change does the source give for Cc1ccc(C)c(C(=O)N2CCN(c3ncccn3)CC2)c1 here?
The cell number change was 12.5%.

For CCC(=O)c1ccc(OCC(=O)OCC(=O)NCC2CCCO2)cc1 (stereo not given), which cell number change is on record?
Its cell number change is 30.5%.

What about the AC50 [1] of the same molecule?
The AC50 was 580 nM [rising, single point].

With COC(=O)c1ccc(/C=N/Nc2nc(-c3ccccc3)cs2)cc1 as the molecule, how does the cell number change read?
The cell number change was 19.6%.

What about the AC50 [1] of the same molecule?
The AC50 was 206 nM [rising, full curve, poor fit].

Which results are given for O=C(NCCCn1ccnc1)c1csc2ccccc12?
cell number change: -1.33%; AC50 [1]: 16400 nM [rising, single point]

For CCOC(=O)C1CCN(C(=O)C2CCN(S(=O)(=O)CC)CC2)CC1, which cell number change is on record?
The cell number change was 5.95%.

And the AC50 [1]?
Its AC50 is 820 nM [falling, full curve].

For O=C(COc1nsnc1N1CCOCC1)Nc1ccccc1Cl, which cell number change is on record?
Its cell number change is 11.6%.

Which results are given for O=c1c2ccccc2cnn1Cc1ccc(Br)cc1F?
cell number change: -14.5%; AC50 [1]: 7080 nM [rising, partial curve]

What does the source list for O=C(COC(=O)CNC(=O)c1ccc(Cl)cc1Cl)Nc1cccc(S(=O)(=O)N2CCCC2)c1?
cell number change: -15.9%; AC50 [1]: 920 nM [rising, partial curve]

For CC(C)C(=O)Nc1cccc(C(=O)Nc2cc([N+](=O)[O-])ccc2Cl)c1, which cell number change is on record?
The cell number change was 1.03%.

What about the AC50 [1] of the same molecule?
The AC50 was 4.61 nM [rising, full curve, poor fit].

With COc1ccc(C)cc1S(=O)(=O)N1CCC2(CC1)OCCN2S(=O)(=O)c1ccccc1 as the molecule, how does the cell number change read?
Its cell number change is 3.81%.

And the AC50 (measured here: cell number channel AC50, cells fed with added oleic acid)?
The AC50 was 1300 nM [rising, partial curve, poor fit].

What about the AC50 [1] of the same molecule?
The AC50 was 2060 nM [rising, partial curve].

For CCC(C)C(=O)Nc1nc2ccc(OC)cc2s1 (stereo not given), which cell number change is on record?
Its cell number change is 17.3%.

With Cc1ccc(-c2cc(C(=O)Nc3cc(C)ccc3O)no2)cc1 as the molecule, how does the cell number change read?
The cell number change was 36.5%.

What does the source list for COC(=O)c1ccc(C2C(C#N)=C(N)Oc3cc(N)ccc32)cc1 (stereo not given)?
cell number change: 3.45%; AC50 [1]: 32600 nM [rising, single point]

Which results are given for Cc1cccc(NC(=O)C2CCCN(S(=O)(=O)c3ccc(-n4cnnn4)cc3)C2)c1 (stereo not given)?
cell number change: -13.3%; AC50 [1]: 6510 nM [falling, single point]

For CCc1nc(NCCN2CCOCC2)c2oc3ccccc3c2n1, which cell number change is on record?
Its cell number change is 7.17%.

What about the AC50 [1] of the same molecule?
Its AC50 is 4.11 nM [rising, full curve, poor fit].

Which cell number change does the source give for COCc1cc(C)nc(SCC(=O)Nc2cc3c(cc2C#N)OCO3)c1C#N here?
Its cell number change is -14%.

What about the AC50 [1] of the same molecule?
Its AC50 is 231 nM [rising, full curve, poor fit].

With Cc1cccc(OCC(=O)NCc2ccc(F)cc2)c1 as the molecule, how does the cell number change read?
Its cell number change is 7.66%.

With O=C(CC1C(=O)NCCN1CC1CCCCC1)NCc1ccc(F)cc1 (stereo not given) as the molecule, how does the cell number change read?
Its cell number change is 25.3%.

And the AC50 [1]?
Its AC50 is 25900 nM [rising, partial curve].
